{"sequences": {"note": "The chains behind the UniProt entries cited, without tags or fusion partners.", "UniProt Q96SW2": "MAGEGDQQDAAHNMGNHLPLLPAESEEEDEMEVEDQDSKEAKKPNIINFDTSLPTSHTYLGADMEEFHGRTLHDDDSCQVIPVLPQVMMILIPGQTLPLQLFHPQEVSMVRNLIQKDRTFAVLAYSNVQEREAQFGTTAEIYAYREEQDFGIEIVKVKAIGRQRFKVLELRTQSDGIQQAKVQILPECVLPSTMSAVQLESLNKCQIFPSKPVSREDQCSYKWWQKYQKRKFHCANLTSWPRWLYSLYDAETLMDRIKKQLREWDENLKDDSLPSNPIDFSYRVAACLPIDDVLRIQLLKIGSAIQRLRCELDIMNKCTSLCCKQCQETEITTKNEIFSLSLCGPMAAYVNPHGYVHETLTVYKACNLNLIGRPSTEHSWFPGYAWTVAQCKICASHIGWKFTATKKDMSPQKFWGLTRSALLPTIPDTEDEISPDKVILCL", "UniProt P11362": "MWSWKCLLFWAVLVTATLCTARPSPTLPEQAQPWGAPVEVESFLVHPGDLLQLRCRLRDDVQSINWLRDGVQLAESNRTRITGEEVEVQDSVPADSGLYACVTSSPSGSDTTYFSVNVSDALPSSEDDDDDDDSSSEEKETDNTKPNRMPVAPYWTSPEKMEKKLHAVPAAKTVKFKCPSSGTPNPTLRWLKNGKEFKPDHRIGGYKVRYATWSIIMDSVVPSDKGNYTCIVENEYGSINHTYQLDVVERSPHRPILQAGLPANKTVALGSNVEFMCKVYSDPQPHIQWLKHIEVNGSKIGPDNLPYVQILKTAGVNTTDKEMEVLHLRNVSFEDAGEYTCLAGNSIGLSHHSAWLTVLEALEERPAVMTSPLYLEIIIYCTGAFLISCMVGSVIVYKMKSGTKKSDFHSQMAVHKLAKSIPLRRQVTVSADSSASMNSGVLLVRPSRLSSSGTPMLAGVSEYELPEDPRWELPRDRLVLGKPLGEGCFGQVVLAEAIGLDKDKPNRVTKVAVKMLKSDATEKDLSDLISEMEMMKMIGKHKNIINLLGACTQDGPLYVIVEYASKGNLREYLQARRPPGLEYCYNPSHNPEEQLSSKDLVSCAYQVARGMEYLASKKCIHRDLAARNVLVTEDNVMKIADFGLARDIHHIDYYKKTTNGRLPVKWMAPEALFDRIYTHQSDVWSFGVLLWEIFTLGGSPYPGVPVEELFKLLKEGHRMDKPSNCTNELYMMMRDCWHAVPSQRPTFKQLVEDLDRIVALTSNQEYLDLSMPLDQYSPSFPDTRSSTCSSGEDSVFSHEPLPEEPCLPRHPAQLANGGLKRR", "UniProt Q5VZL5": "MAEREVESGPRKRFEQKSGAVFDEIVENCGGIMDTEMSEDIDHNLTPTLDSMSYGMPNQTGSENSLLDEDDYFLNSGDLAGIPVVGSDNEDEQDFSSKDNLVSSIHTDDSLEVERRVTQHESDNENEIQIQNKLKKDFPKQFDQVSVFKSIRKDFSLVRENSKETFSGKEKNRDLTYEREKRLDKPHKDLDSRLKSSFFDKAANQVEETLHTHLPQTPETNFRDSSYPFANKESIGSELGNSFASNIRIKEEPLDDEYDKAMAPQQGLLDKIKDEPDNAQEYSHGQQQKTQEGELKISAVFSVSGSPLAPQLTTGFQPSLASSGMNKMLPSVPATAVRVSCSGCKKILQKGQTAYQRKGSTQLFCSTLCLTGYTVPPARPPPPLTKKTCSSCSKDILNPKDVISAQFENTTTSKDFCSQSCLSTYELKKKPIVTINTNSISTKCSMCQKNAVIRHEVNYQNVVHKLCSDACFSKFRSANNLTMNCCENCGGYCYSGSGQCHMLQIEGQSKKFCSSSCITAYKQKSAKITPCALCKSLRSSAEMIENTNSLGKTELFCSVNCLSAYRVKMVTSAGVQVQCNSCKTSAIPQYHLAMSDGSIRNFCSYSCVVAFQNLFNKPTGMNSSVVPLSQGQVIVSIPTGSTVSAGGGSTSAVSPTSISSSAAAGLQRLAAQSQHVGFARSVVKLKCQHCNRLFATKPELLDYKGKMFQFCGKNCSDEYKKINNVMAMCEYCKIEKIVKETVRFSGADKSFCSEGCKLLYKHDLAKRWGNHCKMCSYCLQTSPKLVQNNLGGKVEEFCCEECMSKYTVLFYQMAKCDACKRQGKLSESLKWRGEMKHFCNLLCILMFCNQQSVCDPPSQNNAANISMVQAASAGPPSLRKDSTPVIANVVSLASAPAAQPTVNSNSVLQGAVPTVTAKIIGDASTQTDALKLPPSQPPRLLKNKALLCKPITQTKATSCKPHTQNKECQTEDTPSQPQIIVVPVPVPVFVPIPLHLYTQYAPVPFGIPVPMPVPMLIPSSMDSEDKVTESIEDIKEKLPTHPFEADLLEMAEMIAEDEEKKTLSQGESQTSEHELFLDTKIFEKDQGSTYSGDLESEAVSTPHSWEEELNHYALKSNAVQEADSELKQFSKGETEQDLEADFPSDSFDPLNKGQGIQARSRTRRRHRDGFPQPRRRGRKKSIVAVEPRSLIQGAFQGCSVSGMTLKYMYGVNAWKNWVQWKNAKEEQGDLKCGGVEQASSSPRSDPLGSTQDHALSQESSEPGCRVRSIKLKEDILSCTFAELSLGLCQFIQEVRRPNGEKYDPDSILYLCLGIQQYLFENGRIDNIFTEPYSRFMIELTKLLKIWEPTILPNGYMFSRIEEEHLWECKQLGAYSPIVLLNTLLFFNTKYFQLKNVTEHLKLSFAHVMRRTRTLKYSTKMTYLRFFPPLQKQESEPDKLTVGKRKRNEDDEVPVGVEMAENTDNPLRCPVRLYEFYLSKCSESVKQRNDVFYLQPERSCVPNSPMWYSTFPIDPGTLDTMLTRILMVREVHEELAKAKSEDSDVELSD", "UniProt Q9UEG4": "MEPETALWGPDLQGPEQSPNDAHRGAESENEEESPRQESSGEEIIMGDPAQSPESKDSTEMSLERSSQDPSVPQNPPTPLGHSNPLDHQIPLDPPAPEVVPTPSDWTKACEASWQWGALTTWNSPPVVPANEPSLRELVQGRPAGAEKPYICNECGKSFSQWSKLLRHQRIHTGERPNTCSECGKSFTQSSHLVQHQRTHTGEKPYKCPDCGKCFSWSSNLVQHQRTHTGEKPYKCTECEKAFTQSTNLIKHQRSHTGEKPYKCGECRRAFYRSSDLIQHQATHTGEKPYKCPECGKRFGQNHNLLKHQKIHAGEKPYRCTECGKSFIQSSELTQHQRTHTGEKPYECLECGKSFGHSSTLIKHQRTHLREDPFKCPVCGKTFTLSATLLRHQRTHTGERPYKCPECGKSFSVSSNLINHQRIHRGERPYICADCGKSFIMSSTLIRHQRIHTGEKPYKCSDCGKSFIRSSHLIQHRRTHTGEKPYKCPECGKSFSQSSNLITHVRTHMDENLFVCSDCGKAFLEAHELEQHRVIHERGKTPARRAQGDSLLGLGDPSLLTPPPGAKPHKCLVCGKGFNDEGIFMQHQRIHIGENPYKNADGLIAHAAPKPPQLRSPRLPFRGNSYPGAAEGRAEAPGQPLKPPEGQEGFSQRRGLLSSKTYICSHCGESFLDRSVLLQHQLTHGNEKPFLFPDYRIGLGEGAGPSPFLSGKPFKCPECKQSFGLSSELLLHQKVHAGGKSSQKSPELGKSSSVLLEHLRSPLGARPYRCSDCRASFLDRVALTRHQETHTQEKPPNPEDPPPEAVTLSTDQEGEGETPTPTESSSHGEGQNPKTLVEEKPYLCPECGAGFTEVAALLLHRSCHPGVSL"}, "source": "paper PMC8748630", "note": "No constants are given. Whether binding was seen depends on the method and setting."}
{"target": "biotin-labelled bls-CRBN (UniProt Q96SW2)", "assay": "AlphaScreen or HTRF; AlphaScreen: biotinylated bls-CRBN mixture, FLAG-GST-substrate mixture and DMSO or 20 µM IMiDs; 100 mM Tris pH 8.0, 0.01% Tween20, 100 mM NaCl, 1 mg/mL BSA, 26 °C 1 h; anti-DYKDDDDK mAb, streptavidin donor and Protein A acceptor beads; wheat cell-free proteins"}
{"substance": "FLAG-GST-FGFR1 (from UniProt P11362 1-822)", "binding": "no binding (tested: tested with DMSO or 20 µM pomalidomide)"}
{"substance": "FLAG-GST-ZMYM4 (from UniProt Q5VZL5 1-1548)", "binding": "no binding (tested: tested with DMSO or 20 µM IMiDs)"}
{"substance": "FLAG-GST-ZNF629 (from UniProt Q9UEG4 1-869)", "binding": "no binding (tested: tested with DMSO or 20 µM IMiDs)"}
